Here are results for one molecule from patent publication EP4814012A1.

Chains of the proteins cited; added tags and fusions are not shown. Residues count along the entry.
UniProt P24394, residues 26-232: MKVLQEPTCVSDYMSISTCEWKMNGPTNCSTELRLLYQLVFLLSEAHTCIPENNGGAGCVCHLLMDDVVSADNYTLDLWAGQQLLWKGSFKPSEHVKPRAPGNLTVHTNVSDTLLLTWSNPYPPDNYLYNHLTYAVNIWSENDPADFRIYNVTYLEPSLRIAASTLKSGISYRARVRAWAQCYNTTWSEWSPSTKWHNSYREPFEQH

These are yes or no findings as the source states them, for the method shown. Some results given as binding are weak or reduced against the parent protein; the word gives no strength.

The target in assay [1] is hIL-4Rα.ECD (human) (UniProt P24394). Kind of assay: SPR (Biacore 8K), captured antibody, sequential injection of hIL-4Rα then hTSLP (simultaneous binding). On the technique in general: Surface plasmon resonance follows binding to a sensor surface in real time, without labels.
For assay [2] the target is unchanged. The experiment in a line: SPR (Biacore 8K), hIL-4Rα.ECD analyte.

B1: MTM (bispecific antibody, human IgG2, lambda)
heavy: QMQLVESGGGVVQPGRSLRLSCAASGFTFRTYGMHWVRQAPGKGLEWVAVIWYDGSNKHYADSVKGRFTITRDNSKNTLNLQMNSLRAEDTAVYYCARAPQWELVHEAFDIWGQGTMVTVSSASTKGPSVFPLAPCSRSTSESTAALGCLVKDYFPEPVTVSWNSGALTSGVHTFPAVLQSSGLYSLSSVVTVPSSNFGTQTYTCNVDHKPSNTKVDKTVERKCCVECPPCPAPPVAGPSVFLFPPKPKDTLMISRTPEVTCVVVDVSHEDPEVQFNWYVDGVEVHNAKTKPREEQFNSTFRVVSVLTVVHQDWLNGKEYKCKVSNKGLPAPIEKTISKTKGQPREPQVYTLPPSREEMTKNQVSLTCLVKGFYPSDIAVEWESNGQPENNYKTTPPMLDSDGSFFLYSKLTVDKSRWQQGNVFSCSVMHEALHNHYTQKSLSLSPGKGGGGSGGGGSQVQLVQSGAEVKKPGASVKVSCKASGYTFTTYYIYWVRQAPGQCLEWMGGSNPSTGGTLDNEKFKTRVTMTVDKSTSTAYMELSSLRSEDTAVYYCTRSGRYAPFTYWGCGTLVTVSSGGGGSGGGGSGGGGSGGGGSDIQMTQSPSSLSASVGDRVTITCKASQDVSTSVAWYQQKPGKAPKLLIYSASYRFTGVPSRFSGSGSGTDFTFTISSLQPEDFATYYCQHYSTTPFTFGCGTKLEIK
light: SYVLTQPPSVSVAPGQTARITCGGNNLGSKSVHWYQQKPGQAPVLVVYDDSDRPSWIPERFSGSNSGNTATLTISRGEAGDEADYYCQVWDSSSDHVVFGGGTKLTVLGQPKAAPSVTLFPPSSEELQANKATLVCLISDFYPGAVTVAWKADSSPVKAGVETTTPSKQSNNKYAASSYLSLTPEQWKSHRSYSCQVTHEGSTVEKTVAPTECS
In the case of B1, the binding entry with hIL-4Rα.ECD (human) [1] and with hIL-4Rα.ECD (human) [2] was “binds” in each case.
